In paper PMC10181935:
These are yes or no findings as the source states them, for the method shown. Binding seen in cells or lysates may run through a third protein. Some results given as binding are weak or reduced against the parent protein; the word gives no strength.

Sequences of proteins named here, by UniProt entry; tags and fusion partners are left off. A change or cut given only in a name is not applied to a line headed by its entry. A line that says so, or that is headed by a name, gives the form on record, which may keep a tag or linker.
UniProt Q16665: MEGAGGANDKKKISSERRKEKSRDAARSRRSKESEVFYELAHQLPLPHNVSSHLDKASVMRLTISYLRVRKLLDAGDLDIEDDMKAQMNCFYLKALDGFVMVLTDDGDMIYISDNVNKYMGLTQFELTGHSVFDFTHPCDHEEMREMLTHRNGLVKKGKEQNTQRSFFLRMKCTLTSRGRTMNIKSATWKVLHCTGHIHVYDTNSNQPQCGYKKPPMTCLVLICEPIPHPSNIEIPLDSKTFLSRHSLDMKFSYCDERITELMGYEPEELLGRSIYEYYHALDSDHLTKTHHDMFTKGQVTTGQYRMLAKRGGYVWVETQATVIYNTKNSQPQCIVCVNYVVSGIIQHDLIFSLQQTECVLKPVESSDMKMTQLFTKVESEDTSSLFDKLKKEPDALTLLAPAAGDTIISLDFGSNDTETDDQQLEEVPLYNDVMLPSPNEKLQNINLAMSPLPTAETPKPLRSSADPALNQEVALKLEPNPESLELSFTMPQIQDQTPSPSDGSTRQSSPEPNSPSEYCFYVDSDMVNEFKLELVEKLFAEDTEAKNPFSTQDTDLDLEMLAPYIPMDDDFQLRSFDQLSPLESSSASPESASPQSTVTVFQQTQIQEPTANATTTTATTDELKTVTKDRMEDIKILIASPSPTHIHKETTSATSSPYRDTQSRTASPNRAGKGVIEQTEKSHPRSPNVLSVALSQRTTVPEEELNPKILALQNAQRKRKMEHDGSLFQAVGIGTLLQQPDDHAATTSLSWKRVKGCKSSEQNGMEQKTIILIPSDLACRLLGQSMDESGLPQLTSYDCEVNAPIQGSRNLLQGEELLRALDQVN
FBW7γ (Q969H0-4, form named): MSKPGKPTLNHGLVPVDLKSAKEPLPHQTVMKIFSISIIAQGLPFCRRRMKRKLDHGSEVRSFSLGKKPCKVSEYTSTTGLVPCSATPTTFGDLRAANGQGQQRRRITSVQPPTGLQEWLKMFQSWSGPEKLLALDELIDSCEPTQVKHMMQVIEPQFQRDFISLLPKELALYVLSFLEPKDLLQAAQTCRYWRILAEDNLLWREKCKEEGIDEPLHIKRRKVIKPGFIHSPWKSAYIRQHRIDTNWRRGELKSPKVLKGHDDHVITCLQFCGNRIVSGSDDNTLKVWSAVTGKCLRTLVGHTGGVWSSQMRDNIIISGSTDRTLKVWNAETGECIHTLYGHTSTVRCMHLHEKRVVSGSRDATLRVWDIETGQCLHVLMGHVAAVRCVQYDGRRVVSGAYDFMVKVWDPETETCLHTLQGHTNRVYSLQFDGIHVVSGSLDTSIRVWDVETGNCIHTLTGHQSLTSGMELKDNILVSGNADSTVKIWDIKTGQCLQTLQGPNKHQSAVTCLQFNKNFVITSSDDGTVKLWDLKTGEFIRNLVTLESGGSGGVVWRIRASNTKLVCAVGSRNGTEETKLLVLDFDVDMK

Target: HIF1α (human (endogenous in 8505C and C643)) (UniProt Q16665)
Assay: co-IP; cell lysates of 8505C or C643 cells under hypoxia incubated with antibodies against target proteins or IgG at 4 °C for 3 h, protein A/G-agarose beads at 4 °C overnight, washed with RIPA buffer, western blot; treatments of the cells: Dox-induced TET1, 20 μM LY294002 for 24 h, TET1 knockout (sgTET1) against sgCon, MG132 (p300 co-IP)

- binding: binds
Substance: FBW7γ (from UniProt Q969H0-4 1-589)
